Assay results from article PMC7819943, “Rice protein-binding microarrays: a tool to detect cis-acting elements near promoter regions in rice”.
This is one part of the list.

Sequences of proteins named here, by UniProt entry; tags and fusion partners are left off.
UniProt Q0JBA9, entry or part of it: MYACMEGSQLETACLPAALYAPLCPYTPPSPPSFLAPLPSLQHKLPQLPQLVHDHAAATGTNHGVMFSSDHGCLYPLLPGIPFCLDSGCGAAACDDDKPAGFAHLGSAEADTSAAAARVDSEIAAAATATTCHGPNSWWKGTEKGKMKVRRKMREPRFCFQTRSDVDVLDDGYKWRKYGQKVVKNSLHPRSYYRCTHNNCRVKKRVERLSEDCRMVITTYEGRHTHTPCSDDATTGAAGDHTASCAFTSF

Each sequence was assayed against OsWRKY34 (Oryza sativa, UniProt Q0JBA9 1-250) (assay: protein-binding microarray (RPBM); PBS, 2% BSA, 51.3 ng/ul salmon testes DNA, 50 uM zinc acetate, 200 nM TF, 25 C, 1 h; high values mean tight binding). Conditions: protein: recombinant; tags: N-terminal polyhistidine and DsRed monomer fusion (pET32a); label: CyDye5-dUTP incorporated in the synthesized complementary strand; 3' TTTTT single-stranded linker to array surface; dsDNA, one strand shown.
How it was run: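 The binding signal is fluorescence intensity per feature, in arbitrary units, read on an Axon 4000B scanner. Polyhistidine- and DsRed-tagged transcription factors (N-terminal fusions) from E. coli BL21-CodonPlus were purified on Ni–NTA and applied at 200 nM for 1 h at 25 °C to a double-stranded, BSA-blocked custom Agilent array in buffer with 50 µM zinc acetate.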

Row | Sequence | binding signal
1 | CTGGTATTTAAATCGCACGCGTTCCTCAGCCACCGCCCTCCGGAGTCACCTAGTGCAG | 9750 fluorescence intensity (a.u.)
2 | CGGGTTTGATTTGATTTGATTTTGATTTTGATTTGCTTCTCGGAGTCACCTAGTGCAG | 8190 fluorescence intensity (a.u.)
3 | GAAAACGGCGTCTGCCACGTGTACACCACTCCTCTGTCTACGGAGTCACCTAGTGCAG | 9260 fluorescence intensity (a.u.)
4 | CTAGGGCGTTAGAGGGCTCGGGAGGGCTCGGCGAGATGGGCGGAGTCACCTAGTGCAG | 8960 fluorescence intensity (a.u.)
5 | TCTATATCTACTTAAGCCCCTTCATTCCCGCGTATTCTCCCGGAGTCACCTAGTGCAG | 8120 fluorescence intensity (a.u.)
6 | CGCGTGTTCTCTTCTCCTGGCTCGATTGCGTGTTGTAGATCGGAGTCACCTAGTGCAG | 8500 fluorescence intensity (a.u.)
7 | CGCCACCGTCCTGCTCACCGGCGTTCCGCCGGAACGACTTCGGAGTCACCTAGTGCAG | 9640 fluorescence intensity (a.u.)
8 | CATGACCAAGGTTCGTTATTATCCCTCTTTTCACATTTGTCGGAGTCACCTAGTGCAG | 8260 fluorescence intensity (a.u.)
9 | CAGGGGCATTTCCGTCCAGGATGGTATTTTGGCGAAGACACGGAGTCACCTAGTGCAG | 8260 fluorescence intensity (a.u.)
10 | ACCTCCGCCTCGTCGCCCGCTTCGCCCATCGCCATCGCGCCGGAGTCACCTAGTGCAG | 8670 fluorescence intensity (a.u.)
11 | GTTTATTTTAGGACATTGTAATAGGTGGTTGATTTATTTTCGGAGTCACCTAGTGCAG | 8380 fluorescence intensity (a.u.)
12 | ACCTGTATCATCATTAGCTGTATTCTGCCAAGTTCATAAACGGAGTCACCTAGTGCAG | 8950 fluorescence intensity (a.u.)
13 | CGGCTGGGTGGTGGTCTTCTTCTTCTGCTGCTGCTGCCGCCGGAGTCACCTAGTGCAG | 9350 fluorescence intensity (a.u.)
14 | AGAGAGAGAGAGCGGACTTCACCGCATCGGTCAACGGGTACGGAGTCACCTAGTGCAG | 8710 fluorescence intensity (a.u.)
15 | TTCAGCAGCACCCACCTTCCCGATGTTTCTTGCCAACTTTCGGAGTCACCTAGTGCAG | 11300 fluorescence intensity (a.u.)
16 | GCCTATATGACGGTGTTGACTCGGTCTTCGTCCCACGTGTCGGAGTCACCTAGTGCAG | 10000 fluorescence intensity (a.u.)
17 | CTCTTCACCACTTAGTGCTTTTTAAATTTCATCCTTTTCACGGAGTCACCTAGTGCAG | 8140 fluorescence intensity (a.u.)
18 | AGTTCATCTTGGTATCTTATGCTAGCTAGTCTTCCAAGCTCGGAGTCACCTAGTGCAG | 8940 fluorescence intensity (a.u.)
19 | ACACAGCCACACACCAACATGCCCTTCAGGTCTTCACACTCGGAGTCACCTAGTGCAG | 9550 fluorescence intensity (a.u.)
20 | AATGTGGGTATGCCAACCAAATAACCTCTAAGTTTGACCACGGAGTCACCTAGTGCAG | 8390 fluorescence intensity (a.u.)
21 | GCTGTGTTTGTTTTGGGTGGTTGGGAACAAAACTCCTCCGCGGAGTCACCTAGTGCAG | 9070 fluorescence intensity (a.u.)

Reformatted as comma-separated lines: entries from further up
Row,Sequence,binding signal
9,CAGGGGCATTTCCGTCCAGGATGGTATTTTGGCGAAGACACGGAGTCACCTAGTGCAG,8260 fluorescence intensity (a.u.)
13,CGGCTGGGTGGTGGTCTTCTTCTTCTGCTGCTGCTGCCGCCGGAGTCACCTAGTGCAG,9350 fluorescence intensity (a.u.)

Later entries:

Row | Sequence | binding signal
22 | TCTTCTTCTTCTCCACGTCCCCGGCCTCTCTTCTCGCTCTCGGAGTCACCTAGTGCAG | 9870 fluorescence intensity (a.u.)
23 | GCCAGCTGCCTCCTCCGATCTCTCTCTCACTCTCACACACCGGAGTCACCTAGTGCAG | 9690 fluorescence intensity (a.u.)
24 | TAATGGAAGTGGTTTACGTCGCTTCTGTCAATAAACACACCGGAGTCACCTAGTGCAG | 48400 fluorescence intensity (a.u.)
25 | CTCTCTCTTCAATCCTTCATCCTCTTCCTCAGGTGAGATGCGGAGTCACCTAGTGCAG | 8300 fluorescence intensity (a.u.)
26 | CTCCCTGCATCGACATGGCCATACTCTCCAACATCTTCTACGGAGTCACCTAGTGCAG | 10800 fluorescence intensity (a.u.)
27 | CTCAGTTCTTTCGCCGTGTTTAGTTACAAATTTTTTATTTCGGAGTCACCTAGTGCAG | 12700 fluorescence intensity (a.u.)
28 | CGTACTATTAACGTGCAACTTTTTTGTCTTTGTACTACCTCGGAGTCACCTAGTGCAG | 9620 fluorescence intensity (a.u.)
29 | AGACCACCTCGCTGCCTCTGCTCTGCTCAGTGCTGCTCACCGGAGTCACCTAGTGCAG | 8750 fluorescence intensity (a.u.)
30 | GCCAATCGCTCCAATTCTCCCGCGCGCGCGCCACTGCCACCGGAGTCACCTAGTGCAG | 8130 fluorescence intensity (a.u.)
31 | CTCGTTCATTTTCTGAATTCTACAACTACGTATTCTCAGACGGAGTCACCTAGTGCAG | 9250 fluorescence intensity (a.u.)
32 | TGAGATGGCCCTGCCAACATATTCCAGCCCAGCTCAGTCCCGGAGTCACCTAGTGCAG | 8110 fluorescence intensity (a.u.)
33 | TTGGCGCGATAGGGATTGGGGAGGCGTTGAGGTGGGGAGACGGAGTCACCTAGTGCAG | 12300 fluorescence intensity (a.u.)
34 | TTGTTGATCATGATTTTCTTTTGGCTATTTGATTTTTTGACGGAGTCACCTAGTGCAG | 8160 fluorescence intensity (a.u.)
35 | AGCTTGTTTATCATGTTTATCGTTTAAAGCTTGTTTTTCGCGGAGTCACCTAGTGCAG | 8790 fluorescence intensity (a.u.)
36 | GGGCTTGTGAACCGGGAGGCGAGGGGAGGGTTATGAGAGTCGGAGTCACCTAGTGCAG | 13900 fluorescence intensity (a.u.)
37 | TTGTGTGGTTGTATCTAGGCCCTTGTTCCACTGTACGTCTCGGAGTCACCTAGTGCAG | 11600 fluorescence intensity (a.u.)
38 | CCTGGTCCCTCTTGTCTTGTTTGCATGGTTTGTTGAACGACGGAGTCACCTAGTGCAG | 8490 fluorescence intensity (a.u.)
39 | AGATGTTTACCCGTCTCTTATCCAGGCAGTTCTACCTCGACGGAGTCACCTAGTGCAG | 8850 fluorescence intensity (a.u.)
40 | GGGACCTAGGATGAACTTATTCCTTTCTGTTTCAACCATACGGAGTCACCTAGTGCAG | 8370 fluorescence intensity (a.u.)
41 | AATGGTCAAATATGTGCTAAAAGTCAACGGCGTCAAACATCGGAGTCACCTAGTGCAG | 15700 fluorescence intensity (a.u.)
42 | TTATACTTCTACCTTCTTCAGTAGTTCATCAATGTCGCGACGGAGTCACCTAGTGCAG | 8370 fluorescence intensity (a.u.)
